{"source": "paper PMC12716022", "about": "“Synthesis, In Silico, and Biological Evaluation of Non‐Hydroxamate Benzoic Acid–Based Derivatives as Potential Histone Deacetylase Inhibitors (HDACi)” (Chemistry & Biodiversity, 2025)", "key": {"MCF‐7": {"system": "MCF‐7", "assay": "MTT in vitro cytotoxicity assay, MCF‐7", "type": "cell-based, human", "details": "72 h treatment, mean ± SD of three experiments in triplicates", "description": "(§1) The following human cell lines obtained from American Type Culture Collection (ATCC) were used to elucidate the antiproliferative effect of the newly synthesized compounds: HepG2 (HB‐8065; hepatocellular carcinoma), MCF‐7 (HTB‐22; breast cancer), K562 (CCL‐243; myeloid leukemia), and MCF‐10A (CRL‐10317; normal mammary cells). MCF‐7 and K562 cells were maintained in RPMI‐1640 media (Capricorn, Germany), whereas HepG2 cells were grown in high‐glucose DMEM (Capricorn, Germany). All media used were supplemented with 10% fetal bovine serum (Gibco, USA), 1% L‐glutamine (Gibco, USA), and 1% penicillin/streptomycin (Gibco, USA). MCF‐10A cells were cultured in DMEM/F12 media (Capricorn, Germany) supplemented with 5% horse serum (Gibco, USA), epidermal growth factor (EGF; Sigma, USA), insulin (Sigma, USA), hydrocortisone (Sigma, USA), and cholera toxin (Sigma, USA). Cells were maintained in humidified incubator with 5% CO2 at 37°C.\n(§2) To evaluate the effects of the compounds on cell proliferation and determine their inhibitory concentration (IC50), eight different concentrations (0.03, 0.1, 0.3, 1, 3, 10, 30, and 100 µM) of each compound were tested. Cells were seeded at a density of 5 × 10^3 cells per well in a 96‐well plate and incubated for 24 h to allow cell attachment. […]"}, "[1]": {"assay": "MTT in vitro cytotoxicity assay, normal MCF‐10A", "type": "cell-based", "details": "MCF-10A normal mammary cells, 72 h treatment, normal human breast cells, mean ± SD", "description": "as §1, §2"}}, "data": [{"smiles": "O=C(CCCCCCC(=O)Nc1ccccc1)NO", "note": "[SAHA, vorinostat, reference compound]", "values": [{"measurement": "IC50", "setting": "MCF‐7", "result": "20.3 ± 2.2", "unit": "µM"}, {"measurement": "IC50", "setting": "MCF‐7; Homo sapiens, MCF7, 72 h", "result": 39.2, "unit": "µM"}, {"measurement": "IC50 at 72 h", "setting": "[1]", "result": "270 ± 29.6", "unit": "µM"}]}]}
